No constants are given. Whether binding was seen depends on the method and setting. In cells and extracts the contact can be indirect. Some binding calls cover weakened binding; strength is not graded here.

Amino acid sequences for entries named in this document (tags omitted).
UniProt Q60974: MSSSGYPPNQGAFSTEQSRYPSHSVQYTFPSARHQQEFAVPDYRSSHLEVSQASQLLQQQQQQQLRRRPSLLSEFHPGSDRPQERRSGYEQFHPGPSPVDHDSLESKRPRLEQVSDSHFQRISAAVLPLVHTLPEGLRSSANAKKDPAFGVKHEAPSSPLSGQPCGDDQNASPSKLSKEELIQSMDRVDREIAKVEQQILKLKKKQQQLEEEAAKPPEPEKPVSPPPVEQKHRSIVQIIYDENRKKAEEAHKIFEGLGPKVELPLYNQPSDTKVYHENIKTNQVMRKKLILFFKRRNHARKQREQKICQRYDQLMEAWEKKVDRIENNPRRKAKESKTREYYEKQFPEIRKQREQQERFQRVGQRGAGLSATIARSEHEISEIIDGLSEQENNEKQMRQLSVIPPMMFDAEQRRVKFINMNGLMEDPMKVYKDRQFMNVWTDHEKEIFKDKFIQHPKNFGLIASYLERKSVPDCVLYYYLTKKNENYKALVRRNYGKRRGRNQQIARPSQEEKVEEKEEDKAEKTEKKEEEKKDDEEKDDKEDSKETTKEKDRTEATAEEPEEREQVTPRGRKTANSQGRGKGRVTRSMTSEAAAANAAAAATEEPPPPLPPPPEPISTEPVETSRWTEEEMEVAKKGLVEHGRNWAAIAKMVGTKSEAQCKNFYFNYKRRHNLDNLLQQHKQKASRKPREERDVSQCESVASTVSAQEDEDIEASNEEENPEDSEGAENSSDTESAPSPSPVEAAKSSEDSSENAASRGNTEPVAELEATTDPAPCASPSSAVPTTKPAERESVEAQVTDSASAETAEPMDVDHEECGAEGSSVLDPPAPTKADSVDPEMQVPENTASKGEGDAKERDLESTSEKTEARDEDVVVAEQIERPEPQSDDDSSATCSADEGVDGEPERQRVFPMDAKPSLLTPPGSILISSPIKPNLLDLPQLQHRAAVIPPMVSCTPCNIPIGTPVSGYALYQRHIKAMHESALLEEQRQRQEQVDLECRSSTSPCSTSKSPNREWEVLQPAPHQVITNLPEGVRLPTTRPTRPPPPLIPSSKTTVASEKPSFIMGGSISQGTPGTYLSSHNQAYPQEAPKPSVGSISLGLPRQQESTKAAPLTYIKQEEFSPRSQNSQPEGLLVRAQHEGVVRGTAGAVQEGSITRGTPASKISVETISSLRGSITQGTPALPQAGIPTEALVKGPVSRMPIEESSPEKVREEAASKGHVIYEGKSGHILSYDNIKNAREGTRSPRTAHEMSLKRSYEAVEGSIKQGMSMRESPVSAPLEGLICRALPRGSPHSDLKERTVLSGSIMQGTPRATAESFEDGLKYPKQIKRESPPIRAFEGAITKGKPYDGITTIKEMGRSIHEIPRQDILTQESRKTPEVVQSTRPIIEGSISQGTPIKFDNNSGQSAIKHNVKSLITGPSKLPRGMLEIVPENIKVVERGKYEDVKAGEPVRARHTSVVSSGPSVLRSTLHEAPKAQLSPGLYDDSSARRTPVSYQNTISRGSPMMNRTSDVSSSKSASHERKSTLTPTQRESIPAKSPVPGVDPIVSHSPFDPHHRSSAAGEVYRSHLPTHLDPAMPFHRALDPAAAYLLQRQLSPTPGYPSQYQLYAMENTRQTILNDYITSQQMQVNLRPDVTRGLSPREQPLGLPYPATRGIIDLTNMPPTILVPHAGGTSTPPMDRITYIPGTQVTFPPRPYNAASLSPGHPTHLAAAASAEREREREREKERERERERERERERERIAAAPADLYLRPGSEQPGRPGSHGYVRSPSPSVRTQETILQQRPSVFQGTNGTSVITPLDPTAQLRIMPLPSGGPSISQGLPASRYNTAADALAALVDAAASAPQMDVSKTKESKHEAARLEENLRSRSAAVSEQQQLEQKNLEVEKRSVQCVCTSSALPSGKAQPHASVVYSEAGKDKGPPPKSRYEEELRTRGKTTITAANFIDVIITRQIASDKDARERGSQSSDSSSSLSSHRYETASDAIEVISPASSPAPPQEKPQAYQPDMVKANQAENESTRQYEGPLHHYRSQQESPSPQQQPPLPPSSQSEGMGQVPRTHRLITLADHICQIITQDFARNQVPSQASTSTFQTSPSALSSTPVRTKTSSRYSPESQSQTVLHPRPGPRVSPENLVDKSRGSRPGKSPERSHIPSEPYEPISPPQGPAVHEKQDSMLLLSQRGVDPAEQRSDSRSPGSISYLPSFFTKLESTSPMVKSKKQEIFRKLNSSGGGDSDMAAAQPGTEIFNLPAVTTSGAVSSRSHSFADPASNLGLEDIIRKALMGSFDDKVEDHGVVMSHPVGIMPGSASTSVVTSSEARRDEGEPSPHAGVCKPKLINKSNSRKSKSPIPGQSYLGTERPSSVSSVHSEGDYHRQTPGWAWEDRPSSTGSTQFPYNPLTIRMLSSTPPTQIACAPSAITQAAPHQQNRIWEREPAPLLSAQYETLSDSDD
UniProt Q9R1E0: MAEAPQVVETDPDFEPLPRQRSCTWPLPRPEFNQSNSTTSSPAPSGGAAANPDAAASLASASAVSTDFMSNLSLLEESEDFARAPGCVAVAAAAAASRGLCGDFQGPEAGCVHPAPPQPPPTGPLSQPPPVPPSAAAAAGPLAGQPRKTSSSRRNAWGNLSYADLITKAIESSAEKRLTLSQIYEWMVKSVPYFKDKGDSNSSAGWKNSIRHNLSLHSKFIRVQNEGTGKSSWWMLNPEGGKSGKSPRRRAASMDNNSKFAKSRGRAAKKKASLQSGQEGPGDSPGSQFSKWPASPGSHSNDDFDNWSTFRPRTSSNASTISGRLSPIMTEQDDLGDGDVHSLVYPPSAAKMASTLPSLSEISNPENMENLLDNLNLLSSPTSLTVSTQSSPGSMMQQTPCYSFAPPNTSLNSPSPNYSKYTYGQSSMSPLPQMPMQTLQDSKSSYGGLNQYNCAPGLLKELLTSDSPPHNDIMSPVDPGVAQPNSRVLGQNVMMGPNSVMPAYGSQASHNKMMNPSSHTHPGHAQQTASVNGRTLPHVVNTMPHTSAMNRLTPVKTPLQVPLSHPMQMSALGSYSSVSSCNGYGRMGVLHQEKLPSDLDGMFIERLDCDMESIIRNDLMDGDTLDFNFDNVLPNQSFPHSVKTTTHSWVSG

Assay in all cases: co-IP; endogenous proteins in lysates of Raw 264.7 cells and BMDM, without IL-4 stimulation; lysate incubated with FoxO1, HDAC3 or NCoR1 antibody 3 h at 4 °C, protein G-sepharose 1 h; CO-IP buffer 50 mM HEPES pH 8.0, 50 mM NaCl, 0.25% sodium deoxycholate, 1% NP-40; western blot
Test [1] addresses NCoR1 (mouse (endogenous in RAW264.7 cells and BMDM)) (UniProt Q60974).
For test [2], the target named is T1, HDAC3 (mouse (endogenous in RAW264.7 cells and BMDM)) (UniProt O88895).
T1 sequence: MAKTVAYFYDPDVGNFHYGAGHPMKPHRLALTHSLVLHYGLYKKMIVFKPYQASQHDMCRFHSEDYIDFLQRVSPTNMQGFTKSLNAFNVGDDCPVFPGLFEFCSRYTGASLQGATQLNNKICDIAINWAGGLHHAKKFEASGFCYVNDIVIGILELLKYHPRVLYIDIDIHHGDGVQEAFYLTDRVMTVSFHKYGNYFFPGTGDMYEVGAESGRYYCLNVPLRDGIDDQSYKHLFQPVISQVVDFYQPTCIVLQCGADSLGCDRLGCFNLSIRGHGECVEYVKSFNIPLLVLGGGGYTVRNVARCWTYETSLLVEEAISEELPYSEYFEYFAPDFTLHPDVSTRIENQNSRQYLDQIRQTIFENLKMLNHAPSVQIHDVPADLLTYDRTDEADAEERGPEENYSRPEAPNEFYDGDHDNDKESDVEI

The target in test [3] is FoxO1 (mouse (endogenous in RAW264.7 cells and BMDM)) (UniProt Q9R1E0).

For FoxO1 (from UniProt Q9R1E0 1-652), the binding result in test [1] and in test [2] was “binds” each time.

For NCoR1 (from UniProt Q60974 1-2453), the binding entry in test [3] and in test [2] was “binds” throughout.

Values taken from article PMC6242852.
